## Library screening results

Protein sequences, listed by entry. Tags and fused reporters are not part of them.
UniProt E9BF75, entry or part of it: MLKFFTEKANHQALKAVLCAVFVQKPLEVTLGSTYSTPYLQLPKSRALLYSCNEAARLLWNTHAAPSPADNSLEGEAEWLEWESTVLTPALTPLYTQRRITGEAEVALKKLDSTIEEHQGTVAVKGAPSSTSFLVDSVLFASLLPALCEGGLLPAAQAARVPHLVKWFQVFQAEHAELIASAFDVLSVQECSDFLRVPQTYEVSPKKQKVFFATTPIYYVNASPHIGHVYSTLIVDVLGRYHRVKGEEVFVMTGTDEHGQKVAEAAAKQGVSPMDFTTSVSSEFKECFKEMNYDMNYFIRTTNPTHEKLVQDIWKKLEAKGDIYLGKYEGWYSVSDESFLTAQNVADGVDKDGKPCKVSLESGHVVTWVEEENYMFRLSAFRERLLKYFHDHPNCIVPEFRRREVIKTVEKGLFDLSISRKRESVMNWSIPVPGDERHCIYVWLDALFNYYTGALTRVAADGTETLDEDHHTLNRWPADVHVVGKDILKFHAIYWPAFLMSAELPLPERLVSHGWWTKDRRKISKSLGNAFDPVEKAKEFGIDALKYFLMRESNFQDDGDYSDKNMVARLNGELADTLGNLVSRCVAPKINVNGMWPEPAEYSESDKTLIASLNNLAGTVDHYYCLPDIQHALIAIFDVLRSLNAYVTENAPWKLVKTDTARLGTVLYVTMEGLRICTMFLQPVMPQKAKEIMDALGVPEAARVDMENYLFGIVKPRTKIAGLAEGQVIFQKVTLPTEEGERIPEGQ

LdMetRS: 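Primary screen of methionyl-tRNA synthetase; the read-out is not stated. Target: Methionyl-tRNA synthetase (putative), Leishmania donovani (UniProt E9BF75). The test concentration is not given. The values are filed as inhibition. About 68,000 compounds were tested under these conditions; 0.035% (about 24) showed 50% or more at least once.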
Mtb heat-shock: 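Assay on Mycobacterium tuberculosis, filed only as a heat shock assay from Cornell; the read-out is not stated. The concentration is filed as 10 mM, unlikely as a test dose, so the dose is not known. The record gives no direction; compounds that gave an IC50 in retests scored well above the rest, so higher reads as stronger inhibition. Of about 69,000 compounds tested this way, about 930 (1.4%) reached 50% or more in at least one test.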

Results are percentages, as filed.
How 0% and 100% were set is not recorded. Most values in the screen are low, and negative values occur.
Compounds were drawn at random from those tested, without regard to their results.
A dash means the value is not listed here; it may have been measured.

With CC(C)NC(=O)CC1CC2(CCN(CC3CC3)CC2)Oc2ccccc21.O=C(O)C(F)(F)F (stereo unspecified) the screen gave Mtb heat-shock: -25.53%. With NC(=O)N1CC[C@@H]2O[C@H](COCC(=O)N3CCCC3)CC[C@@H]21 the screen gave LdMetRS: 13.12%. CC[C@H]1CN(S(C)(=O)=O)CC[C@H]1CC(=O)NCCOC gave LdMetRS: 8.242%; Mtb heat-shock: -38.54%. For CC(C)Oc1cccc(F)c1C(C(=O)O)N1CCCN(C)CC1 (stereo unspecified) the result was LdMetRS: 9.214%; Mtb heat-shock: -5.329%. Cc1cc(CC(=O)N(C)Cc2cccc(OC(C)C)c2)n[nH]1 gave LdMetRS: 12.64%; Mtb heat-shock: 2.905%. COc1ccc(CN2CCC3(CC2)CC(CC(=O)NC(C)C)CO3)cc1.O=C(O)C(F)(F)F (stereo unspecified) read Mtb heat-shock: 0.5964%. With [H][C@@]12CCN(Cc3ccc(C)o3)C[C@@]1([H])[C@H](C(=O)NCC1CC1)CCO2 the screen gave Mtb heat-shock: -8.835%.

For Cc1cc(C)n(NC(=O)c2ccccc2C)c(=O)c1 the result was LdMetRS: 13.78%; Mtb heat-shock: -16.15%. Result for CC(C(=O)N1CCCN(c2ncccc2C#N)CC1)n1ccnc1 (stereo unspecified) was LdMetRS: 3.937%; Mtb heat-shock: -11.78%. With CCCc1nc(C(=O)NC(COC)c2ccnn2C)cs1 (stereo unspecified) the screen gave LdMetRS: 19.81%; Mtb heat-shock: -0.1828%. Result for O=S1(=O)COCCN1Cc1ccc(F)c(C(F)(F)F)c1 was LdMetRS: 10.14%; Mtb heat-shock: -14.71%. For [H][C@]12CCN(C(=O)C3CC=CC3)[C@@]1([H])CC[C@@H](COCC1CCOCC1)O2 the result was Mtb heat-shock: 6.875%. CCS(=O)(=O)N1CCC2(CC1)CC(COC)N(c1ncccn1)C2 (stereo unspecified) read LdMetRS: 11.11%. With CC(=O)Nc1ccc(CNCC(O)c2ccc(Cl)cc2)cc1 (stereo unspecified) the screen gave LdMetRS: 27.59%; Mtb heat-shock: -16.27%.

With CCC[C@H]1CN(C2CCOCC2)C[C@@H]1NC(=O)CCc1cnccn1 the screen gave LdMetRS: 0.2786%; Mtb heat-shock: -20.39%. With COc1ccccc1C(=O)Nc1c(F)c(C(=O)NC2CCCC2)nn1C the screen gave LdMetRS: 18.82%; Mtb heat-shock: 0.7977%. Result for CC(C)(C)n1ncc2c1CCCC2NCc1cccc(C(N)=O)c1 (stereo unspecified) was LdMetRS: 11.05%; Mtb heat-shock: 15.18%. For CCc1nc(CN2CCN(C(=O)c3cc(C)no3)CC2)cs1 the result was LdMetRS: 3.133%; Mtb heat-shock: 18.24%. With O=C(O)C(F)(F)F.[H][C@]12CCC[C@@]1(COCc1csc(C)n1)CN(Cc1nccs1)C2 the screen gave Mtb heat-shock: 0.02094%. [H][C@]12CN(Cc3nc(C)c[nH]3)CC[C@@]1(O)CCN(C(=O)C1CCC1)C2 read Mtb heat-shock: -6.328%. With COCC1CN(C(=O)c2ccco2)Cc2cn(C)nc21.O=C(O)C(F)(F)F (stereo unspecified) the screen gave Mtb heat-shock: -1.649%.

Cc1cc(C(=O)N[C@H]2Cc3ccccc3[C@@H]2N)c(=O)[nH]c1C read LdMetRS: 7.256%; Mtb heat-shock: -6.788%. Cc1ccoc1-c1nnc(CNC2CCCN(c3cccnn3)C2)o1 (stereo unspecified) gave LdMetRS: 15.21%; Mtb heat-shock: -8.402%. For O=C(NCC1CC1)[C@H]1C[C@@H]2CN(S(=O)(=O)Cc3ccccc3)C[C@H]1O2 the result was LdMetRS: 0.3484%. Cn1ccnc1CN1CCCN(C(=O)C2(C#N)CCCCC2)CC1 read LdMetRS: 8.521%; Mtb heat-shock: -15.99%. Result for O=C(CC1CSc2nccc(=O)n21)NCc1ccco1 (stereo unspecified) was LdMetRS: 11.18%; Mtb heat-shock: 1.819%. CN1CCN(Cc2ccccc2CNC(=O)c2cc(Cl)ccc2F)CC1 read LdMetRS: 11.41%; Mtb heat-shock: 10.68%. For CCc1ccc(C(=O)O)cc1S(=O)(=O)N(C)c1cccc(C#N)c1 the result was LdMetRS: -0.3484%; Mtb heat-shock: -10.53%.

For Cc1ccc(CN2CCCC3(CCC(=O)N3)CC2)s1 (stereo unspecified) the result was LdMetRS: 11.67%. Cc1ccccc1C1(CNC(=O)c2cccc(S(C)(=O)=O)c2)CC1 read LdMetRS: 5.249%; Mtb heat-shock: -6.979%. COc1ncccc1C(=O)N1CCN(C(=O)Cc2ccccn2)CC1 gave LdMetRS: 12.5%; Mtb heat-shock: 2.48%. Cc1ccc2c(c1)C(NCc1nnc3n1CCCCC3)CCCO2 (stereo unspecified) gave LdMetRS: 6.367%; Mtb heat-shock: -13.54%. O=C(O)c1ccn(-c2ccccc2NS(=O)(=O)c2cccc(F)c2)n1 gave LdMetRS: 2.653%; Mtb heat-shock: -5.704%. CC(C)(C)n1cc(C#N)cc1NC(=O)CCS(=O)(=O)C1CCCC1 read LdMetRS: 10.65%; Mtb heat-shock: 0.04436%. Cc1cc(C[C@@H]2CCC[C@H]2NCc2ccccc2F)on1 read LdMetRS: 15.29%.

Result for Cc1ccc(C(=O)NS(=O)(=O)c2c(Cl)cccc2Cl)c(=O)[nH]1 was LdMetRS: 5.587%; Mtb heat-shock: -2.216%. Result for O=C(CN1CCOC(Cn2cccn2)C1)NCc1ccccn1 (stereo unspecified) was LdMetRS: 15.76%; Mtb heat-shock: -8.77%. CCN(C(=O)COC)C(c1cccnc1)c1cc(C)cc(C)c1 (stereo unspecified) gave LdMetRS: 3.5%; Mtb heat-shock: -26.58%. CC(C)c1nnsc1CNC(=O)C1CCN(C(=O)C2CCC2)CC1 gave LdMetRS: 3.361%; Mtb heat-shock: -10.1%. With CCn1c(N)nc2cc(C(=O)NCCc3ccccc3F)cnc21 the screen gave LdMetRS: 13.91%; Mtb heat-shock: -5.05%.

The first 4 entries again:

SMILES	LdMetRS	Mtb heat-shock
CC(C)NC(=O)CC1CC2(CCN(CC3CC3)CC2)Oc2ccccc21.O=C(O)C(F)(F)F (stereo unspecified)	-	-25.53
NC(=O)N1CC[C@@H]2O[C@H](COCC(=O)N3CCCC3)CC[C@@H]21	13.12	-
CC[C@H]1CN(S(C)(=O)=O)CC[C@H]1CC(=O)NCCOC	8.242	-38.54
CC(C)Oc1cccc(F)c1C(C(=O)O)N1CCCN(C)CC1 (stereo unspecified)	9.214	-5.329

Source: ChEMBL document CHEMBL3988442, “University of Dundee, Small-Polar-MMV Screening Library” (2021).